PubChem BioAssay AID1224830 – NIAID – 2016

Test: 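Regulators of TLR4 signalling towards TNF-alpha in macrophage-like cells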 (primary screen)
System: human THP-1 monocytic leukaemia cells, TNF dual-luciferase reporter clone, PMA-differentiated to macrophage-like cells
Knock-down reagent: siRNA pool against human genes, 50 nM
Time to read-out: LPS for 4 h, given about 3 days after siRNA transfection
Challenge: bacterial LPS (TLR4 ligand), 10 ng/ml
Measured: 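Ratio of firefly to renilla light, scaled to the plate median and expressed as a robust z-score per replicate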
Scale: TNF reporter robust z-score: higher = stronger TNF reporter response to LPS
Hit rule: 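Each well counts as active if its z-score is over 2.8 or under -1.5; controls are left without a call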
The whole screen tested about 18,000 reagents; below is an unselected part. About 2,900 of all reagents (16%) were called active. 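Calls are made per well; low scores hint the gene aids the LPS response, high scores that it dampens it.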 Repeated entries: four replicate wells of each siRNA pool. Reagent sequences are not shown.

| gene | TNF reporter robust z-score | activity call |
| --- | --- | --- |
| DEFB107B (defensin beta 107B) | 0.08 | inactive |
| DEFB107B (defensin beta 107B) | 0.01 | inactive |
| DEFB107B (defensin beta 107B) | 0.38 | inactive |
| DEFB107B (defensin beta 107B) | 0.95 | inactive |
| WBP2NL (WBP2 N-terminal like) | -0.76 | inactive |
| WBP2NL (WBP2 N-terminal like) | -0.04 | inactive |
| WBP2NL (WBP2 N-terminal like) | 0.16 | inactive |
| WBP2NL (WBP2 N-terminal like) | -0.61 | inactive |
| CHN1 (chimerin 1) | 0.82 | inactive |
| CHN1 (chimerin 1) | 2.13 | inactive |
| CHN1 (chimerin 1) | 0.78 | inactive |
| CHN1 (chimerin 1) | 1.23 | inactive |
| PROK2 (prokineticin 2) | -1.35 | inactive |
| PROK2 (prokineticin 2) | 0.18 | inactive |
| PROK2 (prokineticin 2) | -0.61 | inactive |
| PROK2 (prokineticin 2) | -0.27 | inactive |
| AGR3 | -0.8 | inactive |
| AGR3 | -0.41 | inactive |
| AGR3 | -0.01 | inactive |
| AGR3 | -0.26 | inactive |
| LASP1 (LIM and SH3 protein 1) | -0.69 | inactive |
| LASP1 (LIM and SH3 protein 1) | -0.6 | inactive |
| LASP1 (LIM and SH3 protein 1) | -1.28 | inactive |
| LASP1 (LIM and SH3 protein 1) | 0.25 | inactive |
| AP4M1 (adaptor related protein complex 4 subunit mu 1) | 2 | inactive |
| AP4M1 (adaptor related protein complex 4 subunit mu 1) | 1.66 | inactive |
| AP4M1 (adaptor related protein complex 4 subunit mu 1) | 0.38 | inactive |
| AP4M1 (adaptor related protein complex 4 subunit mu 1) | 1.11 | inactive |
| KPNB1 (karyopherin subunit beta 1) | -0.81 | inactive |
| KPNB1 (karyopherin subunit beta 1) | -0.19 | inactive |
| KPNB1 (karyopherin subunit beta 1) | -0.51 | inactive |
| KPNB1 (karyopherin subunit beta 1) | -0.52 | inactive |
| AGL (amylo-alpha-1,6-glucosidase and 4-alpha-glucanotransferase) | 0.18 | inactive |
| AGL (amylo-alpha-1,6-glucosidase and 4-alpha-glucanotransferase) | 1.5 | inactive |
| AGL (amylo-alpha-1,6-glucosidase and 4-alpha-glucanotransferase) | -1.17 | inactive |
| AGL (amylo-alpha-1,6-glucosidase and 4-alpha-glucanotransferase) | 1.52 | inactive |
| OR7D4 (olfactory receptor family 7 subfamily D member 4) | -0.42 | inactive |
| OR7D4 (olfactory receptor family 7 subfamily D member 4) | 0.39 | inactive |
| OR7D4 (olfactory receptor family 7 subfamily D member 4) | 0.35 | inactive |
| OR7D4 (olfactory receptor family 7 subfamily D member 4) | 0.5 | inactive |
| MAGEL2 (MAGE family member L2) | -1.72 | active |
| MAGEL2 (MAGE family member L2) | -1.78 | active |
| MAGEL2 (MAGE family member L2) | -0.64 | inactive |
| MAGEL2 (MAGE family member L2) | -1.87 | active |
| TMEFF1 | 0.5 | inactive |
| TMEFF1 | 0.57 | inactive |
| TMEFF1 | -0.2 | inactive |
| TMEFF1 | -0.82 | inactive |
| NRDE2 (NRDE-2, necessary for RNA interference, domain containing) | -0.14 | inactive |
| NRDE2 (NRDE-2, necessary for RNA interference, domain containing) | 1.95 | inactive |
| NRDE2 (NRDE-2, necessary for RNA interference, domain containing) | -0.53 | inactive |
| NRDE2 (NRDE-2, necessary for RNA interference, domain containing) | -0.97 | inactive |
| LRRC8B (leucine rich repeat containing 8 VRAC subunit B) | -1.11 | inactive |
| LRRC8B (leucine rich repeat containing 8 VRAC subunit B) | -1.41 | inactive |
| LRRC8B (leucine rich repeat containing 8 VRAC subunit B) | -0.29 | inactive |
| LRRC8B (leucine rich repeat containing 8 VRAC subunit B) | -1.19 | inactive |
| TMPRSS15 (transmembrane serine protease 15) | -0.93 | inactive |
| TMPRSS15 (transmembrane serine protease 15) | -0.73 | inactive |
| TMPRSS15 (transmembrane serine protease 15) | 0.84 | inactive |
| TMPRSS15 (transmembrane serine protease 15) | -0.32 | inactive |
| SLC7A1 | 0.27 | inactive |
| SLC7A1 | -0.14 | inactive |
| SLC7A1 | 0.44 | inactive |
| SLC7A1 | 0.61 | inactive |
| ZYX (zyxin) | -0.42 | inactive |
| ZYX (zyxin) | 0.24 | inactive |
| ZYX (zyxin) | -0.06 | inactive |
| ZYX (zyxin) | 0.73 | inactive |
| MYO15A (myosin XVA) | -0.09 | inactive |
| MYO15A (myosin XVA) | 1.13 | inactive |
| MYO15A (myosin XVA) | 2.21 | inactive |
| MYO15A (myosin XVA) | 0.44 | inactive |
| THUMPD3 (THUMP domain 3 tRNA guanosine methyltransferase) | -0.12 | inactive |
| THUMPD3 (THUMP domain 3 tRNA guanosine methyltransferase) | -0.14 | inactive |
| THUMPD3 (THUMP domain 3 tRNA guanosine methyltransferase) | -0.19 | inactive |
| THUMPD3 (THUMP domain 3 tRNA guanosine methyltransferase) | 0.32 | inactive |

In a second layout: entries from further up
{"gene": "NRDE2 (NRDE-2, necessary for RNA interference, domain containing)", "TNF reporter robust z-score": -0.14, "activity call": "inactive"}
{"gene": "NRDE2 (NRDE-2, necessary for RNA interference, domain containing)", "TNF reporter robust z-score": 1.95, "activity call": "inactive"}
{"gene": "NRDE2 (NRDE-2, necessary for RNA interference, domain containing)", "TNF reporter robust z-score": -0.53, "activity call": "inactive"}
{"gene": "NRDE2 (NRDE-2, necessary for RNA interference, domain containing)", "TNF reporter robust z-score": -0.97, "activity call": "inactive"}
{"gene": "LRRC8B (leucine rich repeat containing 8 VRAC subunit B)", "TNF reporter robust z-score": -1.11, "activity call": "inactive"}
{"gene": "LRRC8B (leucine rich repeat containing 8 VRAC subunit B)", "TNF reporter robust z-score": -1.41, "activity call": "inactive"}
{"gene": "LRRC8B (leucine rich repeat containing 8 VRAC subunit B)", "TNF reporter robust z-score": -0.29, "activity call": "inactive"}
{"gene": "LRRC8B (leucine rich repeat containing 8 VRAC subunit B)", "TNF reporter robust z-score": -1.19, "activity call": "inactive"}
